# Data taken from article PMC4446433.
# The chains behind the UniProt entries cited, without tags or fusion partners. Residues count along the entry.
# BLM^636–1072, including the RecA domains (P54132, residues 636-1072): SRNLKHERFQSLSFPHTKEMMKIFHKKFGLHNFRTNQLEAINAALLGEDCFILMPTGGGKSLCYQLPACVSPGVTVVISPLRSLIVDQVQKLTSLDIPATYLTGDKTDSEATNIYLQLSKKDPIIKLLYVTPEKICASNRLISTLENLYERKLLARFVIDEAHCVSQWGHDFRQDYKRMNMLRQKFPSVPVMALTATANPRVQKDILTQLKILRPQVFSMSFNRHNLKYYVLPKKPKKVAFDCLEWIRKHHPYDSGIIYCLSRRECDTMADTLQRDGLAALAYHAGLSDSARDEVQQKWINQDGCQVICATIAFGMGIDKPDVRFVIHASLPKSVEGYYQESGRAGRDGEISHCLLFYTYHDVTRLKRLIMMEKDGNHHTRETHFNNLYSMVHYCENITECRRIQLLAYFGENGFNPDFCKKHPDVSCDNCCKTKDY
# BLM^1206–1298, encoding the HRDC domain (P54132, residues 1206-1298): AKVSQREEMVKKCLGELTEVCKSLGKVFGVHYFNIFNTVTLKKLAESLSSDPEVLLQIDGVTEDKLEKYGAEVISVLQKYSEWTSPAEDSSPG
# Results are given in words; binding and its absence hold for the method and conditions named.
# Target: BLM^1206–1298, encoding the HRDC domain (human) (UniProt P54132)
# Assay: BLI; biotinylated HRDC domain immobilised on streptavidin biosensors, RecA domains in solution, in the absence of nucleotide; 20-mM HEPES pH 7.5, 200-mM NaCl, 5% glycerol; 60-s windows; Octet RED384; both purified
substance,measurement,value
"BLM^636–1072, including the RecA domains (from UniProt P54132 636-1072) (domain or fragment)",binding,no binding (condition: in the absence of nucleotide)
